Measured values reported in patent US20100196919A1, “PEPTIDES, ANTIBODIES AND FRAGMENTS THEREOF FOR THE TREATMENT AND DIAGNOSTIC OF CELIAC DISEASE” (UNIVERSITÀ DEGLI STUDI DI VERONA, priority 2007, published 2010).

Key:
serum IgG antibodies = assay: ELISA for serum IgG antibodies against the synthetic peptides; format: binding, human; details: 60 patients with CD
serum IgA = assay: ELISA for serum IgA antibodies against the synthetic peptides; format: binding, human; details: 60 patients' sera (45 out of 60)

VIQVGGSNVLDI [VP-7 peptide]
frequency of IgG antibodies against the peptide (serum IgG antibodies): 91%
patients' sera with IgA antibodies against the peptide (serum IgA): 75%
